In patent publication US4610994A, “1,2,3-triazole anticonvulsant drugs” (priority 1984, dated 1986):

Assays:
[1] = loss of righting reflex (HD50) in mice i.p.; type: in vivo, mice (male albino, CF No. 1)
[2] = system: maximal electroshock seizures; test: maximal electroshock seizure (MES) pattern test in mice; conditions: i.p.

| SMILES | Slope, regression line (HD50) [1] | selectivity of effect (slope), resemblance, MES or sc Met tests [2] |
| --- | --- | --- |
| CCC1(c2ccccc2)C(=O)NC(=O)NC1=O [Phenobarbital] | 8.41 |  |
| CCC1(C)CC(=O)NC1=O (stereo not drawn) [Ethosuximide] | 16.43 |  |
| Clc1ccc(-n2nncc2-c2cccnc2)cc1 [Compound 10, 1-(para-chlorophenyl)-5-(3-pyridyl)-1H-1,2,3-triazole] | 20.18 | does not resemble any of the prototype agents by either the MES or sc Met tests |
| O=C1NC(=O)C(c2ccccc2)(c2ccccc2)N1 [Phenytoin] | 14.03 |  |
| CCCC(CCC)C(=O)O [Valproate] | 12.46 |  |
